The list shows a part of the results.

The text below walks through data of paper PMC7819943, “Rice protein-binding microarrays: a tool to detect cis-acting elements near promoter regions in rice”.

This assay concerns the target T1, OsSMF1 (Oryza sativa, UniProt Q6ZLB0 1-436).
T1 sequence: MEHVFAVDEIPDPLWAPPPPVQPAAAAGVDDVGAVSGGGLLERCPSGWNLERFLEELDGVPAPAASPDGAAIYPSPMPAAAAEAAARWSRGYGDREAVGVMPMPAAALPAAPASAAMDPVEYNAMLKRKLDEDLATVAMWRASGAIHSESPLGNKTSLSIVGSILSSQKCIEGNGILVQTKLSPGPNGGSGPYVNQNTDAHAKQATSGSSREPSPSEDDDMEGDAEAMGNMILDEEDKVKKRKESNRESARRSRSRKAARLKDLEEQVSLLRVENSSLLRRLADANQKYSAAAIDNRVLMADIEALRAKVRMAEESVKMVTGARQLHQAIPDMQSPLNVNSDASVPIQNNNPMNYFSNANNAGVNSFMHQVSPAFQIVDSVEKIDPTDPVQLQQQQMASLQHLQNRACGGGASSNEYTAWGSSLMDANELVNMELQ
Kind of assay: protein-binding microarray (RPBM); PBS, 2% BSA, 51.3 ng/ul salmon testes DNA, 50 uM zinc acetate, 200 nM TF, 25 C, 1 h; high values mean tight binding. The note with it: protein: recombinant; tags: N-terminal polyhistidine and DsRed monomer fusion (pET32a); chain copies: 2; label: CyDye5-dUTP incorporated in the synthesized complementary strand; 3' TTTTT single-stranded linker to array surface; dsDNA, one strand shown. An outline of the steps: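 For the binding signal, per-feature fluorescence intensity was read in arbitrary units on an Axon 4000B scanner. Before scanning, a 2% BSA-blocked custom Agilent array made double-stranded with Cy5-dUTP was washed after 1 h at 25 °C with 200 nM protein and 50 µM zinc acetate. The proteins were Ni–NTA-purified transcription factors with N-terminal polyhistidine and DsRed fusions, expressed in E. coli BL21-CodonPlus.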
As for “GACGGCACGTAGGGTGGGGTGGGTCTGTGCTGATGCATGTCGGAGTCACCTAGTGCAG”, the binding signal is 5050 fluorescence intensity (a.u.). For the sequence “CTGATCTTCCTTAACCAATACACACACATCGACACGCTGTCGGAGTCACCTAGTGCAG”, the binding signal is 3710 fluorescence intensity (a.u.). On to “AGCAGTGGCATTGCAAATCTGTCACCGAAGCTGTCAATAGCGGAGTCACCTAGTGCAG”, for which the binding signal is 3920 fluorescence intensity (a.u.). For “TCCTAGTTAGAGATAGTGACTTGGATAATCAATCCAGCGTCGGAGTCACCTAGTGCAG” the value was 4860 fluorescence intensity (a.u.); for “GGTGAAACTTGCTTTGCGTTTTCCCCATAAATAGCAACATCGGAGTCACCTAGTGCAG”, 3350 fluorescence intensity (a.u.). Regarding “ATCGCGGGCACCGTGTTCTGACTCTGAGCTAGGGTTTCCTCGGAGTCACCTAGTGCAG”, the binding signal was 3640 fluorescence intensity (a.u.). Turning to “ATTTGTCAGCACACCACGTATGCATGCCCTGCTTTATCTTCGGAGTCACCTAGTGCAG”, the binding signal was 9630 fluorescence intensity (a.u.). Turning to “TCCATGCCGCTAAGTCGATGATGACTAGATAGGTTATCAGCGGAGTCACCTAGTGCAG”, the binding signal is 3760 fluorescence intensity (a.u.). Then “TCAGCGCCGCAAGCTCCGGAATGACGGGGTGGTCTCTCGCCGGAGTCACCTAGTGCAG”, with 3450 fluorescence intensity (a.u.). Then “ATTTCTGGAATGGGAACTTACCACTTTGTTTCGTGTGAATCGGAGTCACCTAGTGCAG”, with 3380 fluorescence intensity (a.u.); and “GGTCCCACATGTCATCATCTCTTATCCCTTCTTCCTCCTCCGGAGTCACCTAGTGCAG”, with 4560 fluorescence intensity (a.u.); and “TTACCGCTGCCGCCACGGTGCCAACTGCCACGCCAACGCGCGGAGTCACCTAGTGCAG”, with 3790 fluorescence intensity (a.u.). Regarding “TTCTACAACTTGGACCATAAAACGTGTAGTTTTGTGAAATCGGAGTCACCTAGTGCAG”, the binding signal was 3570 fluorescence intensity (a.u.). For “GCACGGTTTCTAAATCTGAAATTCAGAATTGCAGGCGCTGCGGAGTCACCTAGTGCAG” the value was 4070 fluorescence intensity (a.u.); for “CTTCTTGTTGTTGAGTGATGACCACGATATCGAATCGTACCGGAGTCACCTAGTGCAG”, 3860 fluorescence intensity (a.u.); for “GGGATGTCAAGTTTTCACACGGAGAGGAATGAAATTCGCGCGGAGTCACCTAGTGCAG”, 14000 fluorescence intensity (a.u.). “GGTGGGTGTTTTAATGTGACATGATATTTGTGGTTGGGTTCGGAGTCACCTAGTGCAG”: the binding signal is 3790 fluorescence intensity (a.u.). Turning to “CTCCGGTTGGCAGCGCCCGCGGCCACCGCCACTAACTACGCGGAGTCACCTAGTGCAG”, the binding signal was 21700 fluorescence intensity (a.u.).

On to “AATATTGACGTACCATATAAATATAGGCTAACCCTTTATACGGAGTCACCTAGTGCAG”, for which the binding signal is 4060 fluorescence intensity (a.u.). For “TCCTTCCTCCTGCGTTTGCGTGACGAGGAACGAAAGCATCCGGAGTCACCTAGTGCAG” the value was 4980 fluorescence intensity (a.u.); for “CAAAGCGGTGAACGGCGGCACATGGACACGCACGCGGTTGCGGAGTCACCTAGTGCAG”, 4650 fluorescence intensity (a.u.); for “GAAGATGACATATGTTTGCACGATGTCATGGAGGTCGCTCCGGAGTCACCTAGTGCAG”, 4260 fluorescence intensity (a.u.).

As for “TCCATTTATTACCGTCATCTTATATAATCTTCAATTAGACCGGAGTCACCTAGTGCAG”, the binding signal was 3790 fluorescence intensity (a.u.). As for “GCTGTTCACTATGCTAGATCCTCACACCTTTGATGACATACGGAGTCACCTAGTGCAG”, the binding signal was 31600 fluorescence intensity (a.u.). Regarding “TCAGGTGGGTCGAGCCATGGTGTATGTTGACGTGCCAAATCGGAGTCACCTAGTGCAG”, the binding signal is 18100 fluorescence intensity (a.u.). For “ATCTTTTCTAGTACCAGGATCTTGTGTTGGTGATAGAGAGCGGAGTCACCTAGTGCAG”, the binding signal is 42500 fluorescence intensity (a.u.). For “GTGGTGTGTGTTTACATGTAAGATTAGACAGTTGCCAAGCCGGAGTCACCTAGTGCAG”, the binding signal was 3170 fluorescence intensity (a.u.). Consider “AAATATTAATGCTTGCAGTGTCATAATTGCAAATCCCCTTCGGAGTCACCTAGTGCAG”, for which the binding signal is 4600 fluorescence intensity (a.u.). On to “GAGACCCGCGCTCGACCTCCTCCCAGGTTCTACCCTTCTACGGAGTCACCTAGTGCAG”, for which the binding signal was 18600 fluorescence intensity (a.u.). For “AGATCAAAATCAGGTATTCAGGTGAGGCTTCCAGATATCCCGGAGTCACCTAGTGCAG” the value was 3540 fluorescence intensity (a.u.).

With “AAGACATGTATCCGCCCGTATATCCCATATTATAAAATATCGGAGTCACCTAGTGCAG”, the binding signal is 3250 fluorescence intensity (a.u.). As for “ATATATAGAAATTTCTTAGATACTTTTCAAAATCCATCTTCGGAGTCACCTAGTGCAG”, the binding signal was 21700 fluorescence intensity (a.u.).

For “AAACGACATCTGATGGAGATGTGTTCCATATCAAAGTTGTCGGAGTCACCTAGTGCAG”, the binding signal is 25000 fluorescence intensity (a.u.).

Take “TGCCGGAGCGATTCTATGGGCGCCCATTGTAAGTTGTAACCGGAGTCACCTAGTGCAG”: the binding signal is 3930 fluorescence intensity (a.u.). With “GGCCCACCCTACCGACATTCAATGGCGCCACGTCAGACAACGGAGTCACCTAGTGCAG”, the binding signal is 27500 fluorescence intensity (a.u.).

As for “CTTGAATCCGGTGGTGTTGTGCTCAGCTCGGGCATGAGGGCGGAGTCACCTAGTGCAG”, the binding signal is 3480 fluorescence intensity (a.u.). With “CCATGTTCCCAACCCCTCTCCCTCATTTTCCACGCGTATGCGGAGTCACCTAGTGCAG”, the binding signal was 3650 fluorescence intensity (a.u.). With “GTAGCCCTCGTCGTCATTCTTATCCTCCTACTTCCGTTACCGGAGTCACCTAGTGCAG”, the binding signal was 3670 fluorescence intensity (a.u.). On to “TGTTGTCCACCTCCTTCGACATGAAAATTTGATGACATCACGGAGTCACCTAGTGCAG”, for which the binding signal is 4040 fluorescence intensity (a.u.). Turning to “CACTGGTCAACAGGTTGATGACTGTTTGACCGGATTTTGTCGGAGTCACCTAGTGCAG”, the binding signal is 3540 fluorescence intensity (a.u.). In the case of “TCCTTCCTCTTCCCTTTGTCGCCTACGCGAACCTGGTGCGCGGAGTCACCTAGTGCAG”, the binding signal is 3430 fluorescence intensity (a.u.). Consider “CACAGTGCCCCTTGCTAAACGACGGGATCACGGGACTTGGCGGAGTCACCTAGTGCAG”, for which the binding signal was 33300 fluorescence intensity (a.u.).
